Results are given in words; binding and its absence hold for the method and conditions named. Binding seen in cells or lysates may run through a third protein. Some binding calls cover weakened binding; strength is not graded here.
What was measured:
[1] = target: FLAG-tagged mouse Fyn kinase (mouse) (UniProt P39688); experiment: co-IP; 1% NP-40 extracts of transfected HEK 293FT cells (48 h after transfection); precipitated with rabbit anti-FLAG antibody on protein A beads; blots probed for GCP2 and GCP4
[2] = target: FLAG-tagged mouse γ-tubulin 2 (mouse) (UniProt Q8VCK3); experiment: as above
[3] = target: FLAG-tagged human γ-tubulin 2 (M413V variant) (human) (UniProt Q9NRH3); experiment: as above
[4] = target: FLAG-tagged mouse γ-tubulin 1 (mouse) (UniProt P83887); experiment: as above
[5] = target: γ-tubulin complex protein 4 (GCP4) (human (endogenous in HEK 293FT)) (UniProt Q9UGJ1); experiment: co-IP; unpublished data (T. Sulimenko): precipitation with antibody to GCP4
[6] = target: γ-tubulin complex protein 2 (GCP2) (human (endogenous in HEK 293FT)) (UniProt Q9BSJ2); experiment: co-IP; 1% NP-40 extracts of transfected HEK 293FT cells (48 h after transfection); precipitated with monoclonal antibody GCP2-01 to GCP2 on protein A beads; blots probed for FLAG and γ-tubulin

The chains behind the UniProt entries cited, without tags or fusion partners. Where a name states a change or a piece, a line headed by the entry shows the natural chain unless it says otherwise.
UniProt P39688: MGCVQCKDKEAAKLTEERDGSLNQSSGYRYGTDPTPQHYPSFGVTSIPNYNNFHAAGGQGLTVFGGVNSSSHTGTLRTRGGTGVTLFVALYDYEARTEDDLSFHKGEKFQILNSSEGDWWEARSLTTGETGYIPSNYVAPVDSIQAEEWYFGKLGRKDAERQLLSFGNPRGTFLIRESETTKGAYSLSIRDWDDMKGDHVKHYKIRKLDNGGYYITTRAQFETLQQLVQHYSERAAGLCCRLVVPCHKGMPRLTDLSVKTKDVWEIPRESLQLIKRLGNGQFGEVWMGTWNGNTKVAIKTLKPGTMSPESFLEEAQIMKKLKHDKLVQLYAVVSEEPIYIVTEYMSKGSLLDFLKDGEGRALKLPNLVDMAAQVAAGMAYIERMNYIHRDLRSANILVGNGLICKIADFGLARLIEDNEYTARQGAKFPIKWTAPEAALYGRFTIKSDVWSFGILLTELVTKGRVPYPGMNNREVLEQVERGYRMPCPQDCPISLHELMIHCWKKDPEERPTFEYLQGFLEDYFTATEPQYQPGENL
UniProt Q8VCK3: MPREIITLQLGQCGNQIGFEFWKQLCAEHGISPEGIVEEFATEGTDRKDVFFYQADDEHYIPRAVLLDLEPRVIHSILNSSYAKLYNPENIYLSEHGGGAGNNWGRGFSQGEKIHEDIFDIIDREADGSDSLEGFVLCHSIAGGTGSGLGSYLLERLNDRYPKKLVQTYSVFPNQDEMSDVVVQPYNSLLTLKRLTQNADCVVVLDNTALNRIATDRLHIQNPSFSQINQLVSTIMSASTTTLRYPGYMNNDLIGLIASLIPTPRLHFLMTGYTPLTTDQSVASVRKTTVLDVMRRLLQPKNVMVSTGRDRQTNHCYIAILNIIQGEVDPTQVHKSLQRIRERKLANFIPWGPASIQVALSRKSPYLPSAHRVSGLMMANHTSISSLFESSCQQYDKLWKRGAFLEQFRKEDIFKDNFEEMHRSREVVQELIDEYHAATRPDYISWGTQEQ
UniProt Q9NRH3: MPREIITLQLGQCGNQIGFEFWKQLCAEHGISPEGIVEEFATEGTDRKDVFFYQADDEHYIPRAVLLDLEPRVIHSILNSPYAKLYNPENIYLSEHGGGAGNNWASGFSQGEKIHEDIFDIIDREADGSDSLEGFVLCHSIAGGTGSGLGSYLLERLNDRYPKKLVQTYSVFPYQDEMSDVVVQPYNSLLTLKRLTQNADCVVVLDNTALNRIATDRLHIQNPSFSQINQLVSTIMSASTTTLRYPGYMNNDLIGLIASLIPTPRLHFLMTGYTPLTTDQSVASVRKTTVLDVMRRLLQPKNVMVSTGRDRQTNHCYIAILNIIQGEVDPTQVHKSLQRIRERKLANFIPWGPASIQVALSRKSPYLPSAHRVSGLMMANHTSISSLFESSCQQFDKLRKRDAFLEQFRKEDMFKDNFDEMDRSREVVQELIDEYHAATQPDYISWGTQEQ
UniProt P83887: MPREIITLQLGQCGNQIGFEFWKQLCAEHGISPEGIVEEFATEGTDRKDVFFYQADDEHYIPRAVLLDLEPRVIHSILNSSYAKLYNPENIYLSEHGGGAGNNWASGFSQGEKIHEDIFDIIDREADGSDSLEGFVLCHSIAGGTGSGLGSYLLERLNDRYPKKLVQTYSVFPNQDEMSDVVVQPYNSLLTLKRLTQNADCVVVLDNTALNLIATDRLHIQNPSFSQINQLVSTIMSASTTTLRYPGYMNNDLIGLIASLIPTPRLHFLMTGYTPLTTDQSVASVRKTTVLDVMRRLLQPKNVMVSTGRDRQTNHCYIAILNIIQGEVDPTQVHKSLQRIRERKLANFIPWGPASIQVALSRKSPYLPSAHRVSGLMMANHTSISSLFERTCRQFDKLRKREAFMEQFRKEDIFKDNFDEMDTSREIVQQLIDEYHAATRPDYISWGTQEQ
UniProt Q9UGJ1: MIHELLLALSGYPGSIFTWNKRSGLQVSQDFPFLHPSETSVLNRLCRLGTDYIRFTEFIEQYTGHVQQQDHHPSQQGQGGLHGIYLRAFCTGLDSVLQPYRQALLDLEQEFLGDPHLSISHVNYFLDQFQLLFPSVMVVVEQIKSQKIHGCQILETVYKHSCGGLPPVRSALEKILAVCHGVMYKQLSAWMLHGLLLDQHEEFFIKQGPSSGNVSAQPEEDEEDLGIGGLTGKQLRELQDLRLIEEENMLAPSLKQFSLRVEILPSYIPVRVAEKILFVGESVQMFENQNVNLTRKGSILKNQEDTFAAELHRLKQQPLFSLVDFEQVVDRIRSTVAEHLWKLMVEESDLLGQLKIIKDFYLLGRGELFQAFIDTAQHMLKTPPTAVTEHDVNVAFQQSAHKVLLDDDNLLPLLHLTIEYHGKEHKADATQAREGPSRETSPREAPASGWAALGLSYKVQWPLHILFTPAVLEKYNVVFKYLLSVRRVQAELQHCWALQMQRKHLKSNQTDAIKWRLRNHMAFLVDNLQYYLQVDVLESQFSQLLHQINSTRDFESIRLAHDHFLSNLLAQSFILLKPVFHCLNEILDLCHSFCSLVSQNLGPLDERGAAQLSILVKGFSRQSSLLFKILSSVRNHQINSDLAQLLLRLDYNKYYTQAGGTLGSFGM
UniProt Q9BSJ2: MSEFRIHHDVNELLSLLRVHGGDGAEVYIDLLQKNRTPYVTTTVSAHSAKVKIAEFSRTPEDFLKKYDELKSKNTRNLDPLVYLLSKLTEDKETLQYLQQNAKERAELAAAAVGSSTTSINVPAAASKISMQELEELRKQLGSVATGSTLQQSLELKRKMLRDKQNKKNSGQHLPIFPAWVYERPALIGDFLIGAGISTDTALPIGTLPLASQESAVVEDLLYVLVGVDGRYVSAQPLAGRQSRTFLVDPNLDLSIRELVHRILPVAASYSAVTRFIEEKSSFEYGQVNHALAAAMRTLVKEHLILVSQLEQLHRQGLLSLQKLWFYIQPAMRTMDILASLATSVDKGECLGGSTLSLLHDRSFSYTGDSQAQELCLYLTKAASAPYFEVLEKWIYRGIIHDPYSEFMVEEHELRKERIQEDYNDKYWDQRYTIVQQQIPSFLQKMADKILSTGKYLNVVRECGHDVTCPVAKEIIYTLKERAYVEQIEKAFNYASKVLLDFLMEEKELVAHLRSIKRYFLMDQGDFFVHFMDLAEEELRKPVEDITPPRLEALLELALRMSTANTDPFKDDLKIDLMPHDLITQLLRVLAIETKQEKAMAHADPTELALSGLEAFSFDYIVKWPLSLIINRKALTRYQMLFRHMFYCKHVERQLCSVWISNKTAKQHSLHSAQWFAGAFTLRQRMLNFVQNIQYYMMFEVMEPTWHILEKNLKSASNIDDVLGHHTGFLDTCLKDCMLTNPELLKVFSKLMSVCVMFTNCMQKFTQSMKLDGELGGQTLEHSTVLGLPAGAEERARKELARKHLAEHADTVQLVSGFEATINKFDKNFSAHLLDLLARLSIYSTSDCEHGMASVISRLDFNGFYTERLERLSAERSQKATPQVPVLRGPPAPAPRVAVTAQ

| Substance | binding [1] | binding [2] | binding [3] | binding [4] | binding [5] | binding [6] |
| --- | --- | --- | --- | --- | --- | --- |
| γ-tubulin complex protein 4 (GCP4) (from UniProt Q9UGJ1 1-667) | no binding | binds | binds | binds | – | – |
| γ-tubulin complex protein 2 (GCP2) (from UniProt Q9BSJ2 1-902) | no binding | binds | binds | binds | – | – |
| FLAG-tagged human γ-tubulin 2 (M413V variant) (from UniProt Q9NRH3 1-451) | – | – | – | – | binds | binds |
| FLAG-tagged mouse γ-tubulin 2 (from UniProt Q8VCK3 1-451) | – | – | – | – | binds | binds |

Source: article PMC3250491
